Values from PubChem BioAssay AID1259308 (NCATS, 2017).
The deposit covers about 59,000 reagents; below is an unselected part. About 1,510 of all reagents (2.6%) were called active. 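Calls use total luciferase alone and ignore viability, so some active siRNAs may act by altering cell number.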 Unmarked entries are inactive. Further read-outs or replicates are left out here.

Test: 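Knock-downs that increase output of a recombinant reporter protein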 (primary screen)
System: human HEK293 embryonic kidney cells stably expressing firefly luciferase (HEK-CMV-Luc2-Hygro)
Reagent: single siRNA against human genes, 0.8 pmol siRNA per well
Duration: 72 h
Measurement: 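Luciferase light (ONE-Glo) measured on one replicate plate set and viability (CellTiter-Glo) on the other, scaled to a negative control siRNA, with robust z-scores and luciferase per cell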
Direction: total luciferase, z-score: higher = more reporter protein produced
Rule for the call: 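Active when the median/MAD z-score for overall luciferase is greater than 3; a gene was taken forward for validation with new siRNAs if at least two of its three siRNAs passed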
Meaning of the calls: active = raised luciferase; inactive = no rise

total luciferase, z-score, by target gene and reagent
EMILIN1: SID160729975 -0.0923; SID160729976 0.248; SID160729977 -0.452
MRC1: SID160777445 0.282; SID160777446 1.72; SID160777447 1.36
IFNWP2: SID160725951 -1.23; SID160725952 -0.697; SID160725953 -1.87
EGLN1: SID160741945 0.676; SID160741947 -0.741; SID160741948 0.463
KAT14: SID160745876 -0.523; SID160745877 0.274; SID160745878 -0.514
LARP1B: SID160743019 -0.27; SID160743020 0.222; SID160743021 -0.686
TUT1: SID160748073 -1.24; SID160748074 1.1; SID160748076 3.3 (active)
KRTAP5-6: SID160725374 -1.04; SID160725375 -2.39; SID160767663 -0.0392
PUS10: SID160759038 1.1; SID160759039 -0.393; SID160759040 0.974
CD200R1L: SID160764810 0.565; SID160764811 -0.593; SID160764813 -0.895
ROBO2: SID160715974 0.607; SID160715975 0.913; SID160715976 -2.13
RPL30: SID160716079 -2.62; SID160716080 -2.76; SID160716081 -2.92
TMEM14C: SID160740926 0.0839; SID160740927 0.102; SID160740928 0.18
